Data reported in patent US9012152B2, “Anti-bacterial peptides and methods of treating diseases using same” (Yissum Research Development Company of the Hebrew …, priority 2007, dated 2015).
At least one compound was matched to its structure with a doubt left.

Tested on: E. coli strains MC4100relA^+ and its ΔmazEF derivative
Assay: mazEF-mediated cell death is dependent on cell density
Type: cell-based
Conditions: rifampicin 10 μg/ml, 10 minutes

**Q.** `CO[C@H]1/C=C/O[C@@]2(C)Oc3c(C)c(O)c4c(O)c(c(/C=N/N5CCN(C)CC5)c(O)c4c3C2=O)NC(=O)/C(C)=C\C=C\[C@H](C)[C@H](O)[C@@H](C)[C@@H](O)[C@@H](C)[C@H](OC(C)=O)[C@@H]1C` [rifampicin] was tested. Which mazEF-mediated cell death (densities of 3×10^5 or 3×10^4 cells/ml) did it give?
**A.** not

**Q.** And the mazEF-mediated cell death (densities of 3×10^8 or 3×10^7 cells/ml)?
**A.** led to mazEF-mediated cell death
